This assay has as its target fibrinogen (UniProt P02671). The assay can be described thus: immunoprecipitation from human MS brain myelin homogenate on Protein A/G plates, mass spectrometry.

By UniProt entry, the sequences of proteins in these tests, tags left out. Where a name states a change or a piece, a line headed by the entry shows the natural chain unless it says otherwise.
UniProt P02671: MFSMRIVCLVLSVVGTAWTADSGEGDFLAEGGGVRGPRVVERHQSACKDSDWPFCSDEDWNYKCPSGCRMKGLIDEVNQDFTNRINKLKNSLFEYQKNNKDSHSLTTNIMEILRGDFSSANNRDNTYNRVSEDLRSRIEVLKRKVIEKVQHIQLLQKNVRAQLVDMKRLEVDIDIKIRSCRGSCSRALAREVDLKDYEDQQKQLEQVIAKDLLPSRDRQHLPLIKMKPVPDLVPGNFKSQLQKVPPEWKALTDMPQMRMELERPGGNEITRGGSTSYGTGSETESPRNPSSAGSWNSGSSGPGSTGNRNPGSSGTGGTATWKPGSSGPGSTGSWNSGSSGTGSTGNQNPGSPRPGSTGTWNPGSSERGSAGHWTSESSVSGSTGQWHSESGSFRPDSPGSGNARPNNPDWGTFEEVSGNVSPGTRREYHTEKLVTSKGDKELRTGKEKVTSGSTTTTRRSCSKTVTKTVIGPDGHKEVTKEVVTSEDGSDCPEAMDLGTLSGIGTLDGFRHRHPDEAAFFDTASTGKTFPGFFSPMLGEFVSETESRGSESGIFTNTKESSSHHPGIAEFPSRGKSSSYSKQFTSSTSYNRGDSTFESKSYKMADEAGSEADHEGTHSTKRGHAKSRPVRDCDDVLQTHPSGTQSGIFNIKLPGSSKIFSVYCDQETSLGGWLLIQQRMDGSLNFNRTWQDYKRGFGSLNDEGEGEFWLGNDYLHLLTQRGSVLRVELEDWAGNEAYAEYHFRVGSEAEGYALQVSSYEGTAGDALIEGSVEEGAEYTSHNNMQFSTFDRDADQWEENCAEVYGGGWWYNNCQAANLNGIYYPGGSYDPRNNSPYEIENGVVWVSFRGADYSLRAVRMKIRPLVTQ

These are yes or no findings as the source states them, for the method shown. Binding seen in cells or lysates may run through a third protein. These calls come from enrichment with a bait or labelling near it, and not all partners need be listed.

B1: Antibody G (45-C1C3) (antibody, V domains shown)
VH: EVQLVESGGGAVQPGRSLRLSCAASGVSFSNIGMHWVRQAPGKGLEWVALISSDGRHTHYADSVKGRFTISRDNSENTLYLQINGLRADDTAVYYCAKGLDTRARYMGKFYTFDYWGQGTLVTVSS
VL: DIQLTQSPSSLSASVGDRVTITCRASQNIGVNLNWYQQRPGKGPKLLVSSTFSLQSGVPSRFSASGAGTNFTLTISSLQPEDYVTYYCQQSYSSPFTFGPGTKVDIK
notes: also called mAb G; Ab G
Take B1: the binding entry is listed as “binds”.
